Measurements published in article PMC4736043.
These are yes or no findings as the source states them, for the method shown. Binding seen in cells or lysates may run through a third protein. Some binding calls cover weakened binding; strength is not graded here. Where a sequence is shown, tags or fusion partners need not be part of it. Blank lines part the entries; values can stand above or below the molecule they belong to.

The chains behind the UniProt entries cited, without tags or fusion partners. Residues count along the entry.
UniProt Q6ZWR6, residues 8740-8799: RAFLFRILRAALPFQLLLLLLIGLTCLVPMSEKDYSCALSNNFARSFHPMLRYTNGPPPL

Columns and labels:
[1] = target: T1, Myc-tagged Sun4 (amino acids 135-444) (mouse) (UniProt Q9JJF2); experiment: co-IP; Myc- and EGFP-fusion constructs co-expressed in COS-7 cells; cells lysed in RIPA buffer; Myc-tagged proteins immunoprecipitated with anti-myc antibodies; co-precipitating EGFP-fusion proteins detected with anti-EGFP antibodies; unspecific rabbit IgG as control
T1 sequence: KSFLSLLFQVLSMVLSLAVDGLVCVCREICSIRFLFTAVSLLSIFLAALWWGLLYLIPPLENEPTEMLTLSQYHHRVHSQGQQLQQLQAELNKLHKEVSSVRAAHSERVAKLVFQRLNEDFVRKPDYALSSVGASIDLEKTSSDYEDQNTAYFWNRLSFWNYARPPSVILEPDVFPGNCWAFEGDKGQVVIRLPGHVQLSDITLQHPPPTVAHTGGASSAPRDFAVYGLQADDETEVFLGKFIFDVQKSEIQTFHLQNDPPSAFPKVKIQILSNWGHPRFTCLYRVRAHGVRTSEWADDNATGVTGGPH

Myc-tagged Sun3 = target: T2, Myc-tagged Sun3 (UniProt Q5SS91); experiment: as above
T2 sequence: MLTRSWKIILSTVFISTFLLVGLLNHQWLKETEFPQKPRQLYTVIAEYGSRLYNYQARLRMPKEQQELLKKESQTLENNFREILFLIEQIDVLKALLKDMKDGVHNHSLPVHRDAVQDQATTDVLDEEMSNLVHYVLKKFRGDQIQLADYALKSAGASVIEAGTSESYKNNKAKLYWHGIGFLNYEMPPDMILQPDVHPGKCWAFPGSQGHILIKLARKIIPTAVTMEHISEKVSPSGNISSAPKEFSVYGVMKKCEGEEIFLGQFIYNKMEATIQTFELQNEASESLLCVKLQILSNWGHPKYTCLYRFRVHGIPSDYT

binding [1]: binds
Molecule: EGFP-tagged KASH domain of Nesprin1 (from UniProt Q6ZWR6 8740-8799) (domain or fragment)

binding (Myc-tagged Sun3): binds
binding [1]: binds
B1: EGFP-tagged Sun4 (amino acids 135-444) (domain or fragment, UniProt Q9JJF2-1 135-443)
chain: T1 sequence
